Values from PubChem BioAssay AID743121 (NCATS, 2013).
Shown is one part, drawn at random, of about 26,000 reagents tested. In the full data, 167 (0.63%) were called active. 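Calls are per gene from RSA p-values that are not deposited; an individual active-marked siRNA can sensitise only weakly.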 Reagents against one gene are numbered here. Further read-outs or replicates are left out here. No sequences are given here.

- Test: 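Knock-downs that sensitise breast cancer cells to camptothecin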 (primary screen)
- Cells: MDA-MB-231 cells, a human breast cancer line
- Reagents: single siRNA against human genes, 20 nM siRNA (0.8 pmol per well)
- Timing: 120 h (drug added 48 h after transfection, read 72 h later)
- Conditions: camptothecin 20 nM (about EC30) for 72 h; vehicle 0.1% DMSO in parallel plates
- Read-out: 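Cell viability by ATP luminescence (CellTiter-Glo) as % of non-targeting siRNA wells, and the log2 ratio of viability without drug over viability with camptothecin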
- Direction: log2 vehicle/camptothecin viability: higher = stronger sensitisation to camptothecin; viability with camptothecin: higher = more viable cells
- Active means: 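Each gene scored by redundant siRNA activity (RSA) over its individual siRNA ratios; a gene is called active at p < 0.001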

RBKS #1 → log2 vehicle/camptothecin viability = -0.0817; viability with camptothecin (% of control) = 82.6; activity call = inactive
RBKS #2 → log2 vehicle/camptothecin viability = 0.0447; viability with camptothecin (% of control) = 58.6; activity call = inactive
RBKS #3 → log2 vehicle/camptothecin viability = -0.00141; viability with camptothecin (% of control) = 107; activity call = inactive
RBKS #4 → log2 vehicle/camptothecin viability = -0.322; viability with camptothecin (% of control) = 87.7; activity call = inactive
FBP2 #1 → log2 vehicle/camptothecin viability = -0.216; viability with camptothecin (% of control) = 114; activity call = inactive
FBP2 #2 → log2 vehicle/camptothecin viability = -0.698; viability with camptothecin (% of control) = 78.7; activity call = inactive
FBP2 #3 → log2 vehicle/camptothecin viability = -0.244; viability with camptothecin (% of control) = 120; activity call = inactive
FBP2 #4 → log2 vehicle/camptothecin viability = -0.0885; viability with camptothecin (% of control) = 73.3; activity call = inactive

3 entries from above, set out differently:
Gene,reagent no.,log2 vehicle/camptothecin viability,viability with camptothecin (% of control),activity call
RBKS,2,0.0447,58.6,inactive
RBKS,3,-0.00141,107,inactive
RBKS,4,-0.322,87.7,inactive

More reagents:
TACR1 #1 → log2 vehicle/camptothecin viability = -0.231; viability with camptothecin (% of control) = 51.3; activity call = inactive
TACR1 #2 → log2 vehicle/camptothecin viability = -0.193; viability with camptothecin (% of control) = 73.9; activity call = inactive
TACR1 #3 → log2 vehicle/camptothecin viability = -0.537; viability with camptothecin (% of control) = 94.7; activity call = inactive
TACR1 #4 → log2 vehicle/camptothecin viability = 0.371; viability with camptothecin (% of control) = 45.2; activity call = inactive
KIF3A #1 → log2 vehicle/camptothecin viability = -0.137; viability with camptothecin (% of control) = 114; activity call = inactive
KIF3A #2 → log2 vehicle/camptothecin viability = -0.472; viability with camptothecin (% of control) = 53.2; activity call = inactive
KIF3A #3 → log2 vehicle/camptothecin viability = 0.238; viability with camptothecin (% of control) = 75.5; activity call = inactive
KIF3A #4 → log2 vehicle/camptothecin viability = -0.0643; viability with camptothecin (% of control) = 96.6; activity call = inactive
SCARB2 #1 → log2 vehicle/camptothecin viability = 0.14; viability with camptothecin (% of control) = 85.4; activity call = inactive
SCARB2 #2 → log2 vehicle/camptothecin viability = -0.399; viability with camptothecin (% of control) = 67.1; activity call = inactive
SCARB2 #3 → log2 vehicle/camptothecin viability = -0.556; viability with camptothecin (% of control) = 105; activity call = inactive
SCARB2 #4 → log2 vehicle/camptothecin viability = 0.7; viability with camptothecin (% of control) = 43.4; activity call = inactive
KTN1 #1 → log2 vehicle/camptothecin viability = 0.14; viability with camptothecin (% of control) = 49.1; activity call = inactive
KTN1 #2 → log2 vehicle/camptothecin viability = 0.0835; viability with camptothecin (% of control) = 71.3; activity call = inactive
KTN1 #3 → log2 vehicle/camptothecin viability = -0.569; viability with camptothecin (% of control) = 9.08; activity call = inactive
KTN1 #4 → log2 vehicle/camptothecin viability = -0.246; viability with camptothecin (% of control) = 69.4; activity call = inactive
